# Results reported in the supplement of paper PMC8728848.
# This is one part of the list.
# Experiments:
# Assay in all cases: glycan array binding signal (z-score within array); higher = stronger binding
# Details in all cases: glycan notation: IUPAC condensed, linker removed
# [1] = target: GlcNAc(b1-2)Gal(b1-3)GalNAc
# Outline: (§1)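 Negative Z-scores can be read as non-binding. The Z-score is calculated within each array and then averaged across arrays of one protein sequence at different concentrations or buffers and across linkers. Arrays, 3228 in all, were curated from the Consortium for Functional Glycomics database and kept only where the protein sequence was available.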
# [2] = target: GlcNAc(b1-2)Man(a1-3)[GlcNAc(b1-2)Man(a1-6)]Man(b1-4)GlcNAc(b1-4)GlcNAc
# Outline: as §1
# [3] = target: GlcNAc(b1-2)Man(a1-3)[GlcNAc(b1-2)Man(a1-6)]Man(b1-4)GlcNAc(b1-4)[Fuc(a1-6)]GlcNAc
# Outline: as §1
# [4] = target: GlcNAc(b1-2)Man(a1-3)[GlcNAc(b1-4)][GlcNAc(b1-2)Man(a1-6)]Man(b1-4)GlcNAc(b1-4)GlcNAc
# Outline: as §1
# [5] = target: GlcNAc(b1-2)Man(a1-3)[GlcNAc(b1-4)][GlcNAc(b1-2)Man(a1-6)]Man(b1-4)GlcNAc(b1-4)[Fuc(a1-6)]GlcNAc
# Outline: as §1
# [6] = target: GlcNAc(b1-2)[GlcNAc(b1-4)]Man(a1-3)[GlcNAc(b1-2)Man(a1-6)]Man(b1-4)GlcNAc(b1-4)GlcNAc
# Outline: as §1
# [7] = target: GlcNAc(b1-2)[GlcNAc(b1-4)]Man(a1-3)[GlcNAc(b1-4)][GlcNAc(b1-2)Man(a1-6)]Man(b1-4)GlcNAc(b1-4)GlcNAc
# Outline: as §1
# [8] = target: GlcNAc(b1-2)[GlcNAc(b1-4)]Man(a1-3)[GlcNAc(b1-4)][GlcNAc(b1-2)[GlcNAc(b1-6)]Man(a1-6)]Man(b1-4)GlcNAc(b1-4)GlcNAc
# Outline: as §1
# [9] = target: GlcNAc(b1-2)[GlcNAc(b1-4)]Man(a1-3)[GlcNAc(b1-4)][GlcNAc(b1-2)[GlcNAc(b1-6)]Man(a1-6)]Man(b1-4)GlcNAc(b1-4)[Fuc(a1-6)]GlcNAc
# Outline: as §1
# [10] = target: GlcNAc(b1-2)[GlcNAc(b1-6)]Man(a1-6)[GlcNAc(b1-2)Man(a1-3)]Man(b1-4)GlcNAc(b1-4)GlcNAc
# Outline: as §1
# [11] = target: GlcNAc(b1-2)[GlcNAc(b1-6)]Man(a1-6)[GlcNAc(b1-2)Man(a1-3)]Man(b1-4)GlcNAc(b1-4)[Fuc(a1-6)]GlcNAc
# Outline: as §1
# [12] = target: GlcNAc(b1-2)[GlcNAc(b1-6)]Man(a1-6)[GlcNAc(b1-4)][GlcNAc(b1-2)Man(a1-3)]Man(b1-4)GlcNAc(b1-4)GlcNAc
# Outline: as §1
# GlcNAc(b1-3)Fuc = target: GlcNAc(b1-3)Fuc
# Outline: as §1
# GlcNAc(b1-3)Gal = target: GlcNAc(b1-3)Gal
# Outline: as §1
# [13] = target: GlcNAc(b1-3)Gal(b1-3)GalNAc
# Outline: as §1
# GlcNAc(b1-3)Gal(b1-4)Glc = target: GlcNAc(b1-3)Gal(b1-4)Glc
# Outline: as §1
# [14] = target: GlcNAc(b1-3)Gal(b1-4)GlcNAc
# Outline: as §1
# [15] = target: GlcNAc(b1-3)Gal(b1-4)GlcNAc(b1-2)Man(a1-3)[GlcNAc(b1-3)Gal(b1-4)GlcNAc(b1-2)Man(a1-6)]Man(b1-4)GlcNAc(b1-4)GlcNAc
# Outline: as §1
# [16] = target: GlcNAc(b1-3)Gal(b1-4)GlcNAc(b1-2)Man(a1-3)[GlcNAc(b1-3)Gal(b1-4)GlcNAc(b1-2)Man(a1-6)]Man(b1-4)GlcNAc(b1-4)[Fuc(a1-6)]GlcNAc
# Outline: as §1
# [17] = target: GlcNAc(b1-3)Gal(b1-4)GlcNAc(b1-2)[GlcNAc(b1-3)Gal(b1-4)GlcNAc(b1-6)]Man(a1-6)[GlcNAc(b1-3)Gal(b1-4)GlcNAc(b1-2)Man(a1-3)]Man(b1-4)GlcNAc(b1-4)GlcNAc
# Outline: as §1
# [18] = target: GlcNAc(b1-3)Gal(b1-4)GlcNAc(b1-3)Gal(b1-4)GlcNAc
# Outline: as §1
# [19] = target: GlcNAc(b1-3)Gal(b1-4)GlcNAc(b1-3)Gal(b1-4)GlcNAc(b1-2)Man(a1-3)[GlcNAc(b1-3)Gal(b1-4)GlcNAc(b1-3)Gal(b1-4)GlcNAc(b1-2)Man(a1-6)]Man(b1-4)GlcNAc(b1-4)GlcNAc
# Outline: as §1
# [20] = target: GlcNAc(b1-3)Gal(b1-4)GlcNAc(b1-3)Gal(b1-4)GlcNAc(b1-2)Man(a1-3)[GlcNAc(b1-3)Gal(b1-4)GlcNAc(b1-3)Gal(b1-4)GlcNAc(b1-2)Man(a1-6)]Man(b1-4)GlcNAc(b1-4)[Fuc(a1-6)]GlcNAc
# Outline: as §1
# [21] = target: GlcNAc(b1-3)Gal(b1-4)GlcNAc(b1-3)Gal(b1-4)GlcNAc(b1-2)[GlcNAc(b1-3)Gal(b1-4)GlcNAc(b1-3)Gal(b1-4)GlcNAc(b1-6)]Man(a1-6)[GlcNAc(b1-3)Gal(b1-4)GlcNAc(b1-3)Gal(b1-4)GlcNAc(b1-2)Man(a1-3)]Man(b1-4)GlcNAc(b1-4)[Fuc(a1-6)]GlcNAc
# Outline: as §1
# [22] = target: GlcNAc(b1-3)Gal(b1-4)GlcNAc(b1-3)Gal(b1-4)GlcNAc(b1-3)Gal(b1-4)GlcNAc(b1-2)Man(a1-3)[GlcNAc(b1-3)Gal(b1-4)GlcNAc(b1-3)Gal(b1-4)GlcNAc(b1-3)Gal(b1-4)GlcNAc(b1-2)Man(a1-6)]Man(b1-4)GlcNAc(b1-4)GlcNAc
# Outline: as §1
# [23] = target: GlcNAc(b1-3)Gal(b1-4)GlcNAc(b1-3)Gal(b1-4)GlcNAc(b1-3)Gal(b1-4)GlcNAc(b1-2)Man(a1-3)[GlcNAc(b1-3)Gal(b1-4)GlcNAc(b1-3)Gal(b1-4)GlcNAc(b1-3)Gal(b1-4)GlcNAc(b1-2)Man(a1-6)]Man(b1-4)GlcNAc(b1-4)[Fuc(a1-6)]GlcNAc
# Outline: as §1
# [24] = target: GlcNAc(b1-3)Gal(b1-4)GlcNAc(b1-3)Gal(b1-4)GlcNAc(b1-3)Gal(b1-4)GlcNAc(b1-2)[GlcNAc(b1-3)Gal(b1-4)GlcNAc(b1-3)Gal(b1-4)GlcNAc(b1-3)Gal(b1-4)GlcNAc(b1-6)]Man(a1-6)[GlcNAc(b1-3)Gal(b1-4)GlcNAc(b1-3)Gal(b1-4)GlcNAc(b1-3)Gal(b1-4)GlcNAc(b1-2)Man(a1-3)]Man(b1-4)GlcNAc(b1-4)[Fuc(a1-6)]GlcNAc
# Outline: as §1
# [25] = target: GlcNAc(b1-3)Gal(b1-4)GlcNAc(b1-3)Gal(b1-4)GlcNAc(b1-3)Gal(b1-4)GlcNAc(b1-3)Gal(b1-4)GlcNAc(b1-2)Man(a1-3)[GlcNAc(b1-3)Gal(b1-4)GlcNAc(b1-3)Gal(b1-4)GlcNAc(b1-3)Gal(b1-4)GlcNAc(b1-3)Gal(b1-4)GlcNAc(b1-2)Man(a1-6)]Man(b1-4)GlcNAc(b1-4)GlcNAc
# Outline: as §1
# [26] = target: GlcNAc(b1-3)Gal(b1-4)GlcNAc(b1-3)Gal(b1-4)GlcNAc(b1-3)Gal(b1-4)GlcNAc(b1-3)Gal(b1-4)GlcNAc(b1-2)Man(a1-3)[GlcNAc(b1-3)Gal(b1-4)GlcNAc(b1-3)Gal(b1-4)GlcNAc(b1-3)Gal(b1-4)GlcNAc(b1-3)Gal(b1-4)GlcNAc(b1-2)Man(a1-6)]Man(b1-4)GlcNAc(b1-4)[Fuc(a1-6)]GlcNAc
# Outline: as §1
# [27] = target: GlcNAc(b1-3)Gal(b1-4)GlcNAc(b1-3)Gal(b1-4)GlcNAc(b1-3)Gal(b1-4)GlcNAc(b1-3)Gal(b1-4)GlcNAc(b1-2)[GlcNAc(b1-3)Gal(b1-4)GlcNAc(b1-3)Gal(b1-4)GlcNAc(b1-3)Gal(b1-4)GlcNAc(b1-3)Gal(b1-4)GlcNAc(b1-6)]Man(a1-6)[GlcNAc(b1-3)Gal(b1-4)GlcNAc(b1-3)Gal(b1-4)GlcNAc(b1-3)Gal(b1-4)GlcNAc(b1-3)Gal(b1-4)GlcNAc(b1-2)Man(a1-3)]Man(b1-4)GlcNAc(b1-4)[Fuc(a1-6)]GlcNAc
# Outline: as §1
# [28] = target: GlcNAc(b1-3)Gal(b1-4)GlcNAc(b1-3)Gal(b1-4)GlcNAc(b1-3)GalNAc
# Outline: as §1
# [29] = target: GlcNAc(b1-3)Gal(b1-4)GlcNAc(b1-3)GalNAc
# Outline: as §1
# [30] = target: GlcNAc(b1-3)Gal(b1-4)GlcNAc(b1-3)[GlcNAc(b1-3)Gal(b1-4)GlcNAc(b1-3)]GalNAc
# Outline: as §1
# [31] = target: GlcNAc(b1-3)Gal(b1-4)GlcNAc(b1-6)[Gal(b1-3)]GalNAc
# Outline: as §1
# [32] = target: GlcNAc(b1-3)Gal(b1-4)GlcNAc(b1-6)[GlcNAc(b1-3)Gal(b1-3)]GalNAc
# Outline: as §1
# [33] = target: GlcNAc(b1-3)Gal(b1-4)GlcNAc(b1-6)[GlcNAc(b1-3)]Gal(b1-4)GlcNAc
# Outline: as §1
# GlcNAc(b1-3)GalNAc = target: GlcNAc(b1-3)GalNAc
# Outline: as §1
# GlcNAc(b1-3)Man = target: GlcNAc(b1-3)Man
# Outline: as §1
# [34] = target: GlcNAc(b1-3)[GlcNAc(b1-4)][GlcNAc(b1-6)]GlcNAc
# Outline: as §1
# [35] = target: GlcNAc(b1-3)[GlcNAc(b1-6)]Gal(b1-4)GlcNAc
# Outline: as §1
# [36] = target: GlcNAc(b1-3)[GlcNAc(b1-6)]GalNAc
# Outline: as §1
# [37] = target: GlcNAc(b1-4)Gal(b1-4)GlcNAc
# Outline: as §1
# GlcNAc(b1-4)GlcNAc = target: GlcNAc(b1-4)GlcNAc
# Outline: as §1
# [38] = target: GlcNAc(b1-4)GlcNAc(b1-4)GlcNAc
# Outline: as §1
# [39] = target: GlcNAc(b1-4)GlcNAc(b1-4)GlcNAc(b1-4)GlcNAc(b1-4)GlcNAc
# Outline: as §1
binder,measurement,setting,value
Clec39 (Caenorhabditis elegans) (protein) MTSFYDNSSSSSKPVPLKTSRAQKIQILIFDNWKLILYGAISTLILVLAIMFSTLFFALPAANCDENSEPTKYYTTNAEITTTITTTNQKTTSTASSHLTTISSSATQIYSESSSSSTSQSTFTQSPPEISTTTIAPSDFSCQHGFTLVNNKCWKLVTSNQARPDADKICNGYGGATLFSIKSEQDNRAMIHFVKGQDIDFLWSGLLCSAGEPISCIWDIENGSTANYSNFADGFPNIVYGNCVYFITSGDEAGQWGNEQCGQVMNFVCELPATFQGKDGCKNNYEKSCYLRFDLNLTVPQAQNFCLEKCANLVSIHSANEVRFIMTIYDFIGEILIGALAPAQDFIYWLDGTPANYNNLKFFYNSTCVHMTVAPGMQNVGKWFTRFCTETGKFLCKRSIKNSCT,glycan array binding signal (z-score),[1],0.357
same,glycan array binding signal (z-score),[2],-0.308
same,glycan array binding signal (z-score),[3],0.308
same,glycan array binding signal (z-score),[4],-0.237
same,glycan array binding signal (z-score),[5],0.967
same,glycan array binding signal (z-score),[6],0.095
same,glycan array binding signal (z-score),[7],0.673
same,glycan array binding signal (z-score),[8],0.153
same,glycan array binding signal (z-score),[9],-0.483
same,glycan array binding signal (z-score),[10],-0.576
same,glycan array binding signal (z-score),[11],0.586
same,glycan array binding signal (z-score),[12],-0.669
same,glycan array binding signal (z-score),GlcNAc(b1-3)Fuc,0.515
same,glycan array binding signal (z-score),GlcNAc(b1-3)Gal,0.452
same,glycan array binding signal (z-score),[13],0.161
same,glycan array binding signal (z-score),GlcNAc(b1-3)Gal(b1-4)Glc,-0.771
same,glycan array binding signal (z-score),[14],-0.675
same,glycan array binding signal (z-score),[15],0.007
same,glycan array binding signal (z-score),[16],-0.822
same,glycan array binding signal (z-score),[17],1.07
same,glycan array binding signal (z-score),[18],0.546
same,glycan array binding signal (z-score),[19],0.778
same,glycan array binding signal (z-score),[20],0.417
same,glycan array binding signal (z-score),[21],0.227
same,glycan array binding signal (z-score),[22],-0.221
same,glycan array binding signal (z-score),[23],-0.25
same,glycan array binding signal (z-score),[24],0.618
same,glycan array binding signal (z-score),[25],0.024
same,glycan array binding signal (z-score),[26],0.46
same,glycan array binding signal (z-score),[27],0.475
same,glycan array binding signal (z-score),[28],-1.23
same,glycan array binding signal (z-score),[29],1.08
same,glycan array binding signal (z-score),[30],-0.004
same,glycan array binding signal (z-score),[31],-1.24
same,glycan array binding signal (z-score),[32],0.339
same,glycan array binding signal (z-score),[33],1.44
same,glycan array binding signal (z-score),GlcNAc(b1-3)GalNAc,0.454
same,glycan array binding signal (z-score),GlcNAc(b1-3)Man,-0.997
same,glycan array binding signal (z-score),[34],0.102
same,glycan array binding signal (z-score),[35],0.081
same,glycan array binding signal (z-score),[36],0.615
same,glycan array binding signal (z-score),[37],-0.539
same,glycan array binding signal (z-score),GlcNAc(b1-4)GlcNAc,0.264
same,glycan array binding signal (z-score),[38],-0.088
same,glycan array binding signal (z-score),[39],-0.353
